Measured values from the supplement of paper PMC10849652.
The list shows a part of the results.

By UniProt entry, the sequences of proteins in these tests, tags left out. Where a name states a change or a piece, a line headed by the entry shows the natural chain unless it says otherwise.
UniProt P52597: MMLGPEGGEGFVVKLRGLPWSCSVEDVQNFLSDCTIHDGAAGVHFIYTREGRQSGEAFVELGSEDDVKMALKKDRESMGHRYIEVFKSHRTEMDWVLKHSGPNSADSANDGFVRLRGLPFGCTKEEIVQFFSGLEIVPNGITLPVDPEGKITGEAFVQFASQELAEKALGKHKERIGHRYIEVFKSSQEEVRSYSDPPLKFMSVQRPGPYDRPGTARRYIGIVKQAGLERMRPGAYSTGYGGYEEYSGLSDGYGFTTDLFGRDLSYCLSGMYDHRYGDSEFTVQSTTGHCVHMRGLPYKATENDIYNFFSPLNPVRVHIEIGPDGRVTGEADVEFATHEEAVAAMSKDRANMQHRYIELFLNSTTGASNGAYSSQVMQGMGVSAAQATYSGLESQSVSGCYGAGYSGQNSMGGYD
UniProt Q9NQG7: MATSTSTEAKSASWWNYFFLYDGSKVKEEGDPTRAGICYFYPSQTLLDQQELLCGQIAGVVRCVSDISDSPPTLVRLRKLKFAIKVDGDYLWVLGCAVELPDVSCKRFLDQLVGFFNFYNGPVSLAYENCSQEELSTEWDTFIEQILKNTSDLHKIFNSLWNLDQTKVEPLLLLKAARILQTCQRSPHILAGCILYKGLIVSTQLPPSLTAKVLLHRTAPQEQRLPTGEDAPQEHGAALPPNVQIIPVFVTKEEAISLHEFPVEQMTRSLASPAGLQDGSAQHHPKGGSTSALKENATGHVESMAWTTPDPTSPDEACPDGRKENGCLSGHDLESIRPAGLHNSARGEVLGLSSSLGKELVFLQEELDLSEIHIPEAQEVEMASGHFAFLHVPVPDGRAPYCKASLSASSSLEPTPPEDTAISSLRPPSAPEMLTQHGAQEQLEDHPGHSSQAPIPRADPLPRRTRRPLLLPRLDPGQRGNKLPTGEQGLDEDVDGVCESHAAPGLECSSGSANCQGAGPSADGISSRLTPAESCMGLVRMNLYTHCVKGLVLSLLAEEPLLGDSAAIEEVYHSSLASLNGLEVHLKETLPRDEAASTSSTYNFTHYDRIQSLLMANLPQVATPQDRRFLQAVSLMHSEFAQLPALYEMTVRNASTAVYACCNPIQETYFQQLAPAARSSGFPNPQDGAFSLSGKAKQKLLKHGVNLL
UniProt Q8IWL3: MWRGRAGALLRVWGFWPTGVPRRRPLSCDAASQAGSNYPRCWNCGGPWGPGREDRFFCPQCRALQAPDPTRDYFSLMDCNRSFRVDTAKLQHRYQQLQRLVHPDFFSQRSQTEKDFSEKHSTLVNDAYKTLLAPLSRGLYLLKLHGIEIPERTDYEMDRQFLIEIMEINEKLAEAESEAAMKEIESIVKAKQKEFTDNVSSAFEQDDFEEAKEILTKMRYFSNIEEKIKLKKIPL
UniProt Q9BTY7: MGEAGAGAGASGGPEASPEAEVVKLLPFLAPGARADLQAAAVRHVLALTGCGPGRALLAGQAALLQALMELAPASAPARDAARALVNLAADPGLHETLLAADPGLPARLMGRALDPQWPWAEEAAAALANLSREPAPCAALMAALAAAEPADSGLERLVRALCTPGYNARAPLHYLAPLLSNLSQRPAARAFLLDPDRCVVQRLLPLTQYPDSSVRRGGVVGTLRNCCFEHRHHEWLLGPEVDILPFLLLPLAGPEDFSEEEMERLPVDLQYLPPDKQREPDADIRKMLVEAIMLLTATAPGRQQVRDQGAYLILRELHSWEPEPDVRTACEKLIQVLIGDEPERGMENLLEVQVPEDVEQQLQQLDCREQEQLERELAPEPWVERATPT
UniProt Q9NQE9: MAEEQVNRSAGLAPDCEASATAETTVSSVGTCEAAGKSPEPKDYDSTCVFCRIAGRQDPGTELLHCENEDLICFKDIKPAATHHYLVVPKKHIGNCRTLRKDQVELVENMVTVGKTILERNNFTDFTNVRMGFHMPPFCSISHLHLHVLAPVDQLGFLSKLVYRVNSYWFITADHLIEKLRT
UniProt P50135: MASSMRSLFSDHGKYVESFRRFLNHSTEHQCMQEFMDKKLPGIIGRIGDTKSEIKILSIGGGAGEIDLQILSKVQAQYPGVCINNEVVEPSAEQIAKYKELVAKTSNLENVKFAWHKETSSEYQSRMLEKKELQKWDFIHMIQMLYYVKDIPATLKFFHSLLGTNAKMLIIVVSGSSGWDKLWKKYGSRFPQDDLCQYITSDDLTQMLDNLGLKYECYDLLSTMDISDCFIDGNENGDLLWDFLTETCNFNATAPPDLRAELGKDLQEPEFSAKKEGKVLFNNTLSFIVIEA
UniProt O43390: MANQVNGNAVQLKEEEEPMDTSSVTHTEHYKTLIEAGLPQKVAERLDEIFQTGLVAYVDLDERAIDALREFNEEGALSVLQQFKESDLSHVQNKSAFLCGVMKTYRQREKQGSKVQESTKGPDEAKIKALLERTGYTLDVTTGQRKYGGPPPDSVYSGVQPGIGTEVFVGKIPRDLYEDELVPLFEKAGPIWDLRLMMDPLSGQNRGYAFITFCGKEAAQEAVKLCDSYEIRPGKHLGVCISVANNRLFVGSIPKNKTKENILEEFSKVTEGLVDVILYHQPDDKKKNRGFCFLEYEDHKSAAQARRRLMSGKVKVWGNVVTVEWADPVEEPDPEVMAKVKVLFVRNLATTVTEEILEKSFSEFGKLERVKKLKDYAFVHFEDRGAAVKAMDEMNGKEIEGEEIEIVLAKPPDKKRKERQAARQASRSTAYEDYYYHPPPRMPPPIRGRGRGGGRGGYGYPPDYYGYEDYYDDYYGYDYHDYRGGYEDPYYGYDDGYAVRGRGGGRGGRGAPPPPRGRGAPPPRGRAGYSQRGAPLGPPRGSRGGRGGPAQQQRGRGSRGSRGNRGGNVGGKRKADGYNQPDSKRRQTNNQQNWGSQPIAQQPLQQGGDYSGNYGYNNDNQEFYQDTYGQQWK
UniProt P0DMV8, whole entry, looked up: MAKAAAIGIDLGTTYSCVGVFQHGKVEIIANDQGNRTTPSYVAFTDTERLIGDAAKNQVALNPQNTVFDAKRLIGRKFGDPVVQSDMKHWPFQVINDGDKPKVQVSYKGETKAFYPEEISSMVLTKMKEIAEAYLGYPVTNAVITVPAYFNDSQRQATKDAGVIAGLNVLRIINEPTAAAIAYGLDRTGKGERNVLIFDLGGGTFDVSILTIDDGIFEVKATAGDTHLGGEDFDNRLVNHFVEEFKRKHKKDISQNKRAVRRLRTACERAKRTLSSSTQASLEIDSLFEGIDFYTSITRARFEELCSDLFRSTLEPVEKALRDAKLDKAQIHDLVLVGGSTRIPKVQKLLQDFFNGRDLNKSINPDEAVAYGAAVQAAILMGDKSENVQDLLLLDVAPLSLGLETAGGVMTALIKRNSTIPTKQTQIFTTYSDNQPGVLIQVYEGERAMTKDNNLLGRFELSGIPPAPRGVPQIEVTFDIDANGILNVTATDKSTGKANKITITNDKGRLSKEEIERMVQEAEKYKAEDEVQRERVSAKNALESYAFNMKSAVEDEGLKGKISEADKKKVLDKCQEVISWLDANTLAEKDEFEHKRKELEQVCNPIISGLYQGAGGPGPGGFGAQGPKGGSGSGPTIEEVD
UniProt P56937: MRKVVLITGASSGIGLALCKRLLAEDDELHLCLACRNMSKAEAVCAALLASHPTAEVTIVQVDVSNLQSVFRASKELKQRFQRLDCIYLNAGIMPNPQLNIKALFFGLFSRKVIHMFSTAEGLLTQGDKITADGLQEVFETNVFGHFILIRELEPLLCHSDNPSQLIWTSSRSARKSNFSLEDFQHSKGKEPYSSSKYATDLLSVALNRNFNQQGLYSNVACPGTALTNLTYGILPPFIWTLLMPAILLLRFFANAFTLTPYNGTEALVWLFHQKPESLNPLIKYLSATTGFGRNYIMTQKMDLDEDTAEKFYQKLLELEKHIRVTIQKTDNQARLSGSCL
UniProt Q5SSJ5: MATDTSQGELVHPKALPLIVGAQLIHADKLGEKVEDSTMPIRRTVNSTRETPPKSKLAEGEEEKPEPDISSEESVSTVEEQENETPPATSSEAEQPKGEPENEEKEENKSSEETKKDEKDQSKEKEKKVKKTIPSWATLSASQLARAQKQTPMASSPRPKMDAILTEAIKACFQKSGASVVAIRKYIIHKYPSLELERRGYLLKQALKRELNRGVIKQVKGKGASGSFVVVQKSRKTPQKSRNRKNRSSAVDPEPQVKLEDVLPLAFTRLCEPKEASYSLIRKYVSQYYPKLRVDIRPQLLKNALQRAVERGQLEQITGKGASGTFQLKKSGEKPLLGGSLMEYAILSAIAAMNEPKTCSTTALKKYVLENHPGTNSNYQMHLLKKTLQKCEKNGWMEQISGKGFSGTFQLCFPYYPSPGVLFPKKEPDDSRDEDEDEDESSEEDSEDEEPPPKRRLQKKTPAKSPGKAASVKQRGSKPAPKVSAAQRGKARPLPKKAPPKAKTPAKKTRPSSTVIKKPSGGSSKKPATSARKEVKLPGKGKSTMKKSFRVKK
UniProt Q9NWY4: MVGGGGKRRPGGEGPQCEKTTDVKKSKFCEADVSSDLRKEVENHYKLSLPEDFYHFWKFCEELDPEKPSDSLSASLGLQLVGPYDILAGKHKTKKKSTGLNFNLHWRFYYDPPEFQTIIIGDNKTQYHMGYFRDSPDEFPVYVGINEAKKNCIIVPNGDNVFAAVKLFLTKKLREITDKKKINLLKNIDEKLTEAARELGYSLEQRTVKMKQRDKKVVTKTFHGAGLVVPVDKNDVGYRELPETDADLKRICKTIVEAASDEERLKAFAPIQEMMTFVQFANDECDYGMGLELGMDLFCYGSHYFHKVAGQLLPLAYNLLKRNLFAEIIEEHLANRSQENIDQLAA
UniProt P22626: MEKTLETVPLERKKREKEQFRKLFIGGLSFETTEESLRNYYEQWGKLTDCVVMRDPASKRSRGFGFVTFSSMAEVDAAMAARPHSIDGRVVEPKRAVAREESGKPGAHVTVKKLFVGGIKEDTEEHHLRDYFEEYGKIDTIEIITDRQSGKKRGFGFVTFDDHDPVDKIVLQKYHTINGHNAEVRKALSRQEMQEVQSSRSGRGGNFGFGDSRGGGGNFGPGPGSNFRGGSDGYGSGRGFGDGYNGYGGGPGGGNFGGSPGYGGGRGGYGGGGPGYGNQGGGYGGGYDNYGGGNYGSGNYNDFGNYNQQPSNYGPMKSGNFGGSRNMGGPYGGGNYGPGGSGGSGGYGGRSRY
UniProt P17482: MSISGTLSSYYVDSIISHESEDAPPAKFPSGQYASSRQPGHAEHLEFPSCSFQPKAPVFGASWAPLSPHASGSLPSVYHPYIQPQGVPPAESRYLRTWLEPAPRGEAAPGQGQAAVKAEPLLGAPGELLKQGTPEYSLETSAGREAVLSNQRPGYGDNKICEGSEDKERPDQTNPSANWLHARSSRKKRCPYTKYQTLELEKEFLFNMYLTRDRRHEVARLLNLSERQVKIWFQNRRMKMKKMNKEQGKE
UniProt Q92902: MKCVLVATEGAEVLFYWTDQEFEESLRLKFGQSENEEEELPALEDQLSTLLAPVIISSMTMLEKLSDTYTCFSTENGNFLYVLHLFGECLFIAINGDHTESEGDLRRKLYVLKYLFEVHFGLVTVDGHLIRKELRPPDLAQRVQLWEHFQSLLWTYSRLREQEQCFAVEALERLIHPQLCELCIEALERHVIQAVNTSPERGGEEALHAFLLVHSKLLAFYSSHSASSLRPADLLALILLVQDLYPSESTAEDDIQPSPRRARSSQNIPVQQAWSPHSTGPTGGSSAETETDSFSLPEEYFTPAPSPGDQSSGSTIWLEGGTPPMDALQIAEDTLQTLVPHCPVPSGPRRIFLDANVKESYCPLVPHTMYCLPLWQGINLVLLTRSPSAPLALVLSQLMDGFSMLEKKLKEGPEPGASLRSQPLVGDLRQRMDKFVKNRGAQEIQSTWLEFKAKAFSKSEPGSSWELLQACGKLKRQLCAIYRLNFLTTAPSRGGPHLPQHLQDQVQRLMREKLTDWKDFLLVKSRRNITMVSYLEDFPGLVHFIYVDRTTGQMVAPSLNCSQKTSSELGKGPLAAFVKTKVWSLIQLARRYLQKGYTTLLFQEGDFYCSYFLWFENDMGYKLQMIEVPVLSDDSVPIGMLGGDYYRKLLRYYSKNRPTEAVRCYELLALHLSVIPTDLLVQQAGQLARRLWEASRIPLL
UniProt Q8WVB3: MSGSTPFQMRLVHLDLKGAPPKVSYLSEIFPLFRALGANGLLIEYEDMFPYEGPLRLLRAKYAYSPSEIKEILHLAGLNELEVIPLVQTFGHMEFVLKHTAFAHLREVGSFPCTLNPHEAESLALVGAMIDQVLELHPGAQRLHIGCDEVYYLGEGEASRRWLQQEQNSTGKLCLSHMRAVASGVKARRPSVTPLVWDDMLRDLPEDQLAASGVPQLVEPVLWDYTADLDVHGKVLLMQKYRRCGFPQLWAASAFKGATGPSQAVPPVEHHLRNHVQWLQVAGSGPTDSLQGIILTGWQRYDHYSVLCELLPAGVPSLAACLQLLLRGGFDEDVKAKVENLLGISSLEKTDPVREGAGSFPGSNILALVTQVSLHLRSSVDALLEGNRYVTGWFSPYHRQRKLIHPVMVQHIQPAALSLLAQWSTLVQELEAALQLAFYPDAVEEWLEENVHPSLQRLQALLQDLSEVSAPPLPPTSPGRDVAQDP

Compound: CCCS(=O)(=O)Nc1ccc(F)c(C(=O)c2c[nH]c3ncc(-c4ccc(Cl)cc4)cc23)c1F [vemurafenib]
Experiment: log2 fold change, soluble protein after heating vs DMSO (PISA); higher = thermal stabilisation; K562 lysate, 10 uM; active = over 0.2 and 3.5 SD of the protein, either way, in both replicates (recomputed)
Outline: (§1)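 Quantification was by TMTpro 16plex LC-MS/MS with equalised channel sums, applied to the supernatant after 21,000xg for 90 min. Samples were crude K562 extract at 1 mg/mL protein in PBS pH 7.4 with 1 mM MgCl2, treated with 10 μM compound for 30 min, heated for 3 min across 48°C-58°C, pooled and brought to 0.5% NP-40 at 4°C. Values are log-two fold changes in thermal stability relative to solvent controls, from duplicates.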

log2 fold change, inactive:
HSF2 (UniProt Q03933) 0, HNRNPM (UniProt M0QZM1) -0.027, HNRNPF (UniProt P52597) -0.015, HPS3 (UniProt Q969F9) 0.146, HNRNPM (UniProt M0R019) -0.137, HPS4 isoform 4 (UniProt Q9NQG7) 0.02, HSCB (UniProt Q8IWL3) 0.053, HMCN1 (UniProt Q96RW7) -0.033, HSP90AA1 isoform 2 (UniProt P07900) -0.006, HGH1 (UniProt Q9BTY7) 0.027

Compound: CCCS(=O)(=O)Nc1ccc(F)c(C(=O)c2c[nH]c3ncc(Cl)cc23)c1F
Experiment: as above
Outline: as §1

log2 fold change, inactive:
HOOK3 (UniProt Q86VS8) 0.029, HINT3 (UniProt Q9NQE9) -0.028, HPS5 (UniProt Q9UPZ3) -0.035, HNMT (UniProt P50135) -0.021, HNRNPR isoform 2 (UniProt O43390) 0.023, HSPA1A (UniProt P0DMV8) -0.003, HSD17B7 (UniProt P56937) 0.002, HP1BP3 (UniProt Q5SSJ5) 0.005, HPF1 (UniProt Q9NWY4) -0.033, HECTD4 (UniProt J3KPF0) 0.035, HNRNPA2B1 (UniProt P22626) 0.024, HOXB9 (UniProt P17482) 0, HPS1 (UniProt Q92902) 0.125, HOXB4 (UniProt P17483) 0.026, HIRA (UniProt P54198) 0.017, HJURP (UniProt Q8NCD3) -0.064, HEXD isoform 2 (UniProt Q8WVB3) -0.014, HK1 isoform 2 (UniProt P19367) 0.003, HEATR6 (UniProt Q6AI08) 0.031, HNRNPF (UniProt P52597) 0.03, HPS4 isoform 4 (UniProt Q9NQG7) 0.083, HSCB (UniProt Q8IWL3) 0.137, HSP90AA1 isoform 2 (UniProt P07900) 0.001, HGH1 (UniProt Q9BTY7) 0.009

Compound: CCN(CCCOc1ccc2c(Nc3cc(CC(=O)Nc4cccc(F)c4)[nH]n3)ncnc2c1)CCOP(=O)(O)O [barasertib]
Experiment: as above
Outline: as §1

log2 fold change, inactive:
HOOK3 (UniProt Q86VS8) 0.015, HINT3 (UniProt Q9NQE9) 0.025, HPS5 (UniProt Q9UPZ3) -0.013, HNMT (UniProt P50135) 0.039, HSBP1 (UniProt O75506) 0.095, HNRNPR isoform 2 (UniProt O43390) -0.031, HSPA1A (UniProt P0DMV8) -0.035, HSD17B7 (UniProt P56937) 0.064, HP1BP3 (UniProt Q5SSJ5) 0.028, HPF1 (UniProt Q9NWY4) 0.019, HECTD4 (UniProt J3KPF0) 0.014, HNRNPA2B1 (UniProt P22626) -0.036, HERPUD1 (UniProt Q15011) 0.071, HOXB9 (UniProt P17482) 0.033, HPS1 (UniProt Q92902) 0.023, HOXB4 (UniProt P17483) 0.098, HJURP (UniProt Q8NCD3) 0.064, HEXD isoform 2 (UniProt Q8WVB3) 0.01, HK1 isoform 2 (UniProt P19367) 0.012, HEATR6 (UniProt Q6AI08) 0.109, HNRNPM (UniProt M0QZM1) 0.229, HNRNPF (UniProt P52597) 0.005, HPS4 isoform 4 (UniProt Q9NQG7) -0.044, HSCB (UniProt Q8IWL3) 0.036, HMCN1 (UniProt Q96RW7) 0.008, HSP90AA1 isoform 2 (UniProt P07900) -0.011, HGH1 (UniProt Q9BTY7) 0.032

Compound: CC[C@@H]1C(=O)N(C)c2cnc(Nc3ccc(C(=O)NC4CCN(C)CC4)cc3OC)nc2N1C1CCCC1
Experiment: as above
Outline: as §1

log2 fold change, inactive:
HOOK3 (UniProt Q86VS8) -0.002, HINT3 (UniProt Q9NQE9) 0.055, HMGXB4 (UniProt Q9UGU5) 0.104, HECW2 (UniProt Q9P2P5) -0.213, HNMT (UniProt P50135) -0.249, HSBP1 (UniProt O75506) -0.084, HNRNPR isoform 2 (UniProt O43390) -0.053, HSPA1A (UniProt P0DMV8) 0.016, HSD17B7 (UniProt P56937) -0.071, HP1BP3 (UniProt Q5SSJ5) 0.015, HPF1 (UniProt Q9NWY4) -0.075, HECTD4 (UniProt J3KPF0) 0.009, HNRNPA2B1 (UniProt P22626) 0.006, HERPUD1 (UniProt Q15011) 0.14, HOXB9 (UniProt P17482) 0.064, HPS1 (UniProt Q92902) -0.037, HOXB4 (UniProt P17483) 0.032, HIRA (UniProt P54198) 0.042, HEXD isoform 2 (UniProt Q8WVB3) 0.072, HK1 isoform 2 (UniProt P19367) -0.023, HEATR6 (UniProt Q6AI08) -0.076, HSF2 (UniProt Q03933) -0.037, HNRNPM (UniProt M0QZM1) 0.171, HNRNPF (UniProt P52597) 0.009, HPS3 (UniProt Q969F9) 0.038, HPS4 isoform 4 (UniProt Q9NQG7) 0.071, HSCB (UniProt Q8IWL3) -0.028, HSP90AA1 isoform 2 (UniProt P07900) -0.057, HGH1 (UniProt Q9BTY7) -0.031
